# Where “and” joins values, the source holds several entries; their conditions need not be identical. Equal entries are not always repeated. Among all 320,000 compounds or so, about 22,000 (6.9%) were called active. The shares of active, inactive and inconclusive entries below differ from those in the screen. Calls come from the whole dose curve; as a rule, active = well fitted inhibition curve with a large enough effect; inconclusive = small, poorly fitted or top-dose-only effect, or another doubt; inactive = no such curve, though single readings can be large or run the other way. Where the call is inconclusive, the potency comes from a doubtful curve fit.
# Experiment: Primary qHTS for delayed death inhibitors of the malarial parasite plastid, 96 hour incubation
# Conditions: P. falciparum luciferase reporter growth; series mostly up to 28.7 µM
# Method in brief: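 Delayed-death screen, second-generation endpoint: infected erythrocytes, 2% hematocrit, 0.05% parasitemia final; 96 hours at 37 C, 5% CO2; luciferase detection reagent; luminescence decrease equals reduced growth.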
# Potency is the fitted concentration of half-maximal effect.
row,Compound,Potency
1,O=C(O)c1ccc(-n2nc(-c3ccccc3)c3ccccc3c2=O)cc1,inactive
2,COc1ccc(-c2csc(NC(=O)COC(=O)Cc3ccccc3)n2)cc1OC,inactive
3,Cc1ccc(NC(=O)C2CCCN(C(=O)c3ccc(Cl)cc3)C2)c(C)c1 (stereo not drawn),inactive
4,CC(C)C[C@H](N)c1cn([C@@H](Cc2ccc(O)cc2)C(=O)N2CCNCC2)nn1,inactive
5,C[C@@H](O)C1NC(=O)[C@H](CCCCN)NC(=O)c2cc([N+](=O)[O-])cc(I)c2NCCC[C@@H](C(N)=O)NC1=O (stereo partly drawn),inactive
6,COc1cc2oc(-c3ccc(O)cc3)cc(=O)c2c(OC)c1O,"inconclusive: 2.08 µM [inhibitor, full curve]"
7,O=C(NCCc1ccccc1)C1CCC(CNc2c(N3CCCCC3)c(=O)c2=O)CC1 (stereo not drawn),active: 11.7 µM
8,CCCCCc1ccc(OCCCC[n+]2ccc(C)cc2)c(CCCCC)c1,inactive
9,Cc1noc(C)c1-c1nnc(-c2ccc(C(F)(F)F)cc2)o1,inactive
11,CCN(Cc1ccccc1)C(c1ccc(C)cc1)c1nnnn1C(C)(C)C (stereo not drawn),active: 8.28 µM
12,CN(CC(=O)Nc1cccc2ccccc12)C(=O)c1ccc(F)cc1F,inactive
13,CCN1CCN(c2nc3c(c(=O)[nH]c(=O)n3C)n2Cc2ccccc2)CC1,inactive
14,O=C(N/N=C/c1ccco1)c1ccc(NC(=O)C2CCCCC2)cc1,"inconclusive: 20.8 µM [inhibitor, single point]"
15,COc1ccc(OCC(=O)Nc2nc3c(s2)CCCC3)cc1,inactive
16,CCOC(=O)C1CCN(C(=O)c2oc3ccc(S(=O)(=O)N4CCCCCC4)cc3c2C)CC1,"inconclusive: 4.15 µM [inhibitor, single point]"
17,CCN(C(=O)CSc1nnc(-c2ccco2)n1CC)c1c(N)n(Cc2ccccc2)c(=O)[nH]c1=O,"inconclusive: 18.5 µM [inhibitor, single point]"
18,Cc1ccnc(NS(=O)(=O)c2ccc(NC(=O)c3cncc(Br)c3)cc2)n1,"inconclusive: 16.5 µM [inhibitor, single point]"
19,Cc1cc(C)cc(C(=O)N2CC(C)SC2=Nc2cccc(S(=O)(=O)N(C)C)c2)c1 (stereo not drawn),"inconclusive: 1.65 µM [inhibitor, full curve, poor fit]"
20,COc1ccc(N2CCN(C(C)C(=O)Nc3nnc(C)s3)CC2)cc1 (stereo not drawn),inactive
21,Cn1nccc1C(=O)N1CCc2c([nH]c3ccccc23)C1c1ccc(F)cc1 (stereo not drawn),"inconclusive: 18.5 µM [inhibitor, single point]"
22,N#CCSc1nccc(/C=C/c2ccccc2)n1,"inconclusive: 3.7 µM [inhibitor, partial curve]"
23,COc1ccccc1C(=O)N(Cc1ccccc1)c1ccc(C)cc1,"inconclusive: 9.28 µM [inhibitor, partial curve]"
24,CC(=O)n1cc([C@@H]2C=C(C(=O)N3CCN(Cc4ccccc4)CC3)O[C@H](OCc3ccc(CO)cc3)C2)c2ccccc21,active: 3.29 µM

row,Compound,Potency
1,Cn1c(SCC(=O)c2ccc(O)c(O)c2)nnc1-c1ccccc1,inactive
2,C=CCn1c[n+](CC(=O)c2ccc(Br)s2)c2ccccc21,inactive
3,COc1ccc(-c2nc(CS(=O)CC(=O)NC3CCCCC3C)c(C)o2)cc1OC (stereo not drawn),"inconclusive: 18.5 µM [inhibitor, single point]"
4,CC(C)(C)c1ccc(-c2cc(-c3ccccc3O)[nH]n2)cc1,inactive
5,NC(=O)C1CCN(C(=O)C(=O)c2cn(CC(=O)N3CCCCCC3)c3ccccc23)CC1,"inconclusive: 11.7 µM [inhibitor, single point]"
6,CC(C)(C)NC(=O)C(OC(=O)Cn1nnc(-c2ccc(F)cc2)n1)c1ccncc1 (stereo not drawn),active: 9.28 µM
7,COc1cccc(CNc2ncn[nH]2)c1OCc1ccccc1F,"inconclusive: 3.29 µM [inhibitor, full curve, poor fit]"
8,Cc1ccc(COc2ccsc2C(=O)NN)cc1,"inconclusive: 11.7 µM [inhibitor, partial curve, poor fit]"
9,CCCn1nc(NC(=O)C2CCCO2)c2cc3cccc(C)c3nc21 (stereo not drawn),inactive
10,CCCn1c(SCC(=O)Nc2sc(C)c(C)c2C(=O)OC)nc2c1c(=O)n(C)c(=O)n2C,"inconclusive: 10.4 µM [inhibitor, partial curve, poor fit]"
11,COc1cc(CN(C(=O)c2cc3ccccc3oc2=O)C2CCS(=O)(=O)C2)cc(OC)c1OC (stereo not drawn),"inconclusive: 16.5 µM [inhibitor, single point]"
12,CC(C)Nc1ccc(-n2nc3ccccc3[n+]2[O-])cc1,inactive
13,COc1ccc(C2c3ccc4ccccc4c3Oc3ncn(CCCN(C)C)c(=N)c32)cc1 (stereo not drawn),active: 1.65 µM
14,O=C(CN1C(=O)C2CCCCC2C1=O)Nc1cc([N+](=O)[O-])ccc1F (stereo not drawn),inactive
15,C(=N\Nc1ccccn1)/c1cccnc1,"inconclusive: 9.28 µM [inhibitor, partial curve, poor fit]"
16,COc1ccc(-n2c(CNC(=O)COc3ccc(Cl)cc3Cl)n[nH]c2=S)cc1,"inconclusive: 10.4 µM [inhibitor, partial curve]"
17,COC(CNC(=O)c1ccc(Cn2c(=S)[nH]c3cc4c(cc3c2=O)OCO4)cc1)OC,"inconclusive: 6.57 µM [inhibitor, partial curve, poor fit]"
18,O=C(Nc1ccc2nsnc2c1)N1CCCCCC1,inactive
19,Cc1ccc(C(=O)Nc2nc(-c3cccnc3)cs2)o1,inactive
20,CCNC(=O)NC(=O)CN(C)c1ccccc1,inactive
21,O=C(CSc1nnnn1-c1cccc2ccccc12)Nc1ccc(C(=O)O)cc1,inactive
22,COc1cccc(NS(=O)(=O)c2ccc3[nH]cc(C(=O)NCCCOC(C)C)c(=O)c3c2)c1,"inconclusive: 0.147 µM [inhibitor, full curve, poor fit]"
23,Cc1cccc(OCC(=O)Nc2nc(-c3ccncc3)cs2)c1,inactive
24,c1ccc(N/N=C(\Cc2nc3ccccc3[nH]2)c2ccccc2)cc1,"inconclusive: 18.5 µM [inhibitor, single point]"

# Part of the list above, reformatted:
row	Compound	Potency
7	COc1cccc(CNc2ncn[nH]2)c1OCc1ccccc1F	inconclusive: 3.29 µM [inhibitor, full curve, poor fit]
21	O=C(CSc1nnnn1-c1cccc2ccccc12)Nc1ccc(C(=O)O)cc1	inactive
22	COc1cccc(NS(=O)(=O)c2ccc3[nH]cc(C(=O)NCCCOC(C)C)c(=O)c3c2)c1	inconclusive: 0.147 µM [inhibitor, full curve, poor fit]

# — PubChem BioAssay AID504834 (National Center for Advancing Translational Sciences (NCATS), 2011)
